The values below come from patent US7615651B2, “Diaryl, dipyridinyl and aryl-pyridinyl derivatives and uses thereof” (Pfizer Inc., priority 2006, dated 2009).

The chains behind the UniProt entries cited, without tags or fusion partners.
UniProt P35372, whole entry: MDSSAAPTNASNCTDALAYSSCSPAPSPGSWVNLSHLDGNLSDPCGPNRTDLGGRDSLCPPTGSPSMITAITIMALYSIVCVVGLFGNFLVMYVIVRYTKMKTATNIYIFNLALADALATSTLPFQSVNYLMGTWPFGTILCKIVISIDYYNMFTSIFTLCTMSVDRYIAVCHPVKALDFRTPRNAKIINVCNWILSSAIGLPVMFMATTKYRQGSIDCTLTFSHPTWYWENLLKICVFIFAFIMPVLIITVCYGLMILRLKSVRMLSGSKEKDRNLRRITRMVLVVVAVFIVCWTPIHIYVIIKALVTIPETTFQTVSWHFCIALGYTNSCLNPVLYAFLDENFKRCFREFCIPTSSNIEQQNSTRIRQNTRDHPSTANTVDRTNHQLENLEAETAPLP
UniProt P41143, whole entry: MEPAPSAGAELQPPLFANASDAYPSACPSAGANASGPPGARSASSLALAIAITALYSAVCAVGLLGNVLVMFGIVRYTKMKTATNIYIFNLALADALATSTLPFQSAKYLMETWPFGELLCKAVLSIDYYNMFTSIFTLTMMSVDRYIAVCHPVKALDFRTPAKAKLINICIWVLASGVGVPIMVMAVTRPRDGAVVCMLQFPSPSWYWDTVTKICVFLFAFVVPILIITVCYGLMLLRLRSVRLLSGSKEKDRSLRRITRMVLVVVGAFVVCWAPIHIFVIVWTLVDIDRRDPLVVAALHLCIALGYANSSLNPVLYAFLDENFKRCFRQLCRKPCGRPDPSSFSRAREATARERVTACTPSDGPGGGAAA
UniProt P41145, whole entry: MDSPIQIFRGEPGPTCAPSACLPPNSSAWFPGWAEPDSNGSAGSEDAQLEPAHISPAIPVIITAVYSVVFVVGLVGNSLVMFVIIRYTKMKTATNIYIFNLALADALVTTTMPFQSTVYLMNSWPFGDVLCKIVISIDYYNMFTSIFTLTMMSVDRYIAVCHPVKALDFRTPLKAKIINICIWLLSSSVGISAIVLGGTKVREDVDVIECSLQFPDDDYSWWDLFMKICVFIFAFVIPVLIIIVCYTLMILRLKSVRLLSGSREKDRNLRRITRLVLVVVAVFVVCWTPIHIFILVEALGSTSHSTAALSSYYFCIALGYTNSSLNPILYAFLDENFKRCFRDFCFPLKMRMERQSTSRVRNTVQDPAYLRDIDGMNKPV

Type in all cases: biochemical
The target in one assay is opioid receptor mu (Homo sapiens, UniProt P35372). Kind of assay: GTPγ[35S] binding assay, antagonism of endorphin. To be noted: read-out: Mu functional (GTPγ[35S] binding Ki); average Ki; antagonism of endorphin (1 μM) stimulated GTPγ[35S] binding, mu opioid receptor membranes; tested form: HCl. (In general: Binding of GTPγS marks nucleotide exchange on a G protein.)
A further assay concerns the target opioid receptor delta (Homo sapiens, UniProt P41143). Kind of assay: GTPγ[35S] binding assay, antagonism of BW-373U86. As to conditions: read-out: Delta functional (GTPγ[35S] binding Ki); average Ki; antagonism of BW-373U86 (1 nM) stimulated GTPγ[35S] binding, delta opioid receptor membranes; tested form: HCl.
A further assay has as its target opioid receptor kappa (Homo sapiens, UniProt P41145). In words: GTPγ[35S] binding assay, antagonism of dynorphin-A. To be noted: read-out: Kappa functional (GTPγ[35S] binding Ki); average Ki; antagonism of dynorphin-A (10 nM) stimulated GTPγ[35S] binding, kappa opioid receptor membranes; tested form: HCl.

Structures were worked out from names or drawings and are uncertain.

With `Cc1cc(C(N)=O)ccc1-c1ccc(CNC2Cc3ccccc3C2)cc1F`, the figures for the Ki at opioid receptor mu, on opioid receptor delta and on opioid receptor kappa were 0.108 nM, 0.164 nM and 0.372 nM, respectively.
